# Measurements taken from the supplement of paper PMC6414424.
# ± gives the standard deviation of the averaged measurements. Some of the results follow.
# System: APPdp1-6 iPSC-derived neurons
# Assay: pThr231Tau/total Tau ratio Z-score vs DMSO vehicle wells; higher = more pThr231Tau relative to total Tau
# Conditions: 5 µM; treatment time 5 days
row,Compound,pThr231Tau/total Tau ratio Z-score
1,C[C@]12CC[C@@H]3c4ccc(O)cc4CC[C@H]3[C@@H]1CCC2=O [Prestw-914],-0.22 ± 0.18
2,CCCCOc1cc(C(=O)NCCN(CC)CC)c2ccccc2n1 [Prestw-76],-0.408 ± 0.18
3,O=P(O)(O)C(Cl)(Cl)P(=O)(O)O [Prestw-1381],0.119 ± 0.33
4,O=C1CCc2cc(OCCCCc3nnnn3C3CCCCC3)ccc2N1 [Prestw-587],-1.1 ± 0.19
5,CCS(=O)(=O)CCn1c([N+](=O)[O-])cnc1C [Prestw-766],-0.119 ± 1.1
6,CCCCCCc1ccc(O)cc1O,-0.439 ± 0.17
7,CC1(C)NC(=O)N(c2ccc([N+](=O)[O-])c(C(F)(F)F)c2)C1=O [Prestw-928],0.523 ± 0.66
8,COC(=O)[C@@H]1[C@H]2C[C@H]3c4[nH]c5ccccc5c4CCN3C[C@@H]2CC[C@@H]1O [Prestw-584],-0.213 ± 0.44
9,"C[C@]12C=CC(=O)C=C1CC[C@@H]1[C@@H]2[C@@H](O)C[C@@]2(C)[C@H]1CC[C@]2(O)C(=O)COC(=O)CCC(=O)O [PREDNISOLONE HEMISUCCINATE, antiinflammatory, glucocorticoid]",0.544 ± 0.51
10,CCC(C)n1ncn(-c2ccc(N3CCN(c4ccc(OC[C@H]5CO[C@](Cn6cncn6)(c6ccc(Cl)cc6Cl)O5)cc4)CC3)cc2)c1=O (stereo partly drawn) [Prestw-1139],0.584 ± 0.6
11,COc1ccc2cc([C@@H](C)C(=O)O)ccc2c1 [Prestw-791],1.5 ± 0.49
12,CCn1cc(C(=O)O)c(=O)c2cnc(N3CCCC3)nc21 [Prestw-805],-0.321 ± 1.1
13,CC(C)[N+]1(C)C2CCC1CC(OC(=O)C(CO)c1ccccc1)C2 (stereo not drawn),0.945 ± 0.22
14,O=S(=O)(O)CCS [Prestw-1487],1.61 ± 0.062
15,CCCCCCCCCCCCC[N+](C)(C)Cc1ccccc1,-4.67 ± 0.69
16,CC(C)(C)NC[C@H](O)c1ccc(O)c(CO)c1 [Prestw-1516],0.85 ± 0.58
17,O=C(O)c1cc(-c2ccc(F)cc2F)ccc1O [Prestw-39],1.87 ± 1.8
18,CCCCNC(=O)NS(=O)(=O)c1ccc(C)cc1 [Prestw-190],-0.808 ± 2
19,CC(=O)[C@H]1CC[C@H]2[C@@H]3C[C@H](C)C4=CC(=O)CC[C@]4(C)[C@H]3[C@@H](O)C[C@]12C [Prestw-743],0.0382 ± 0.93
20,OCc1cc(C(O)CNCCCCCCOCCCCc2ccccc2)ccc1O (stereo not drawn) [Prestw-945],-0.513 ± 0.76
21,O=C(O)Cc1sc(-c2ccccc2)nc1-c1ccc(Cl)cc1 [Prestw-1254],-1.04 ± 0.67
22,CC(=O)OCC(=O)[C@@]12N=C(C)O[C@@H]1C[C@H]1[C@@H]3CCC4=CC(=O)C=C[C@]4(C)[C@H]3[C@@H](O)C[C@@]12C [Prestw-1509],-0.271 ± 0.19
23,C=C1c2c(Cl)ccc(O)c2C(O)=C2C(=O)[C@]3(O)C(O)=C(C(N)=O)C(=O)[C@@H](N(C)C)[C@@H]3[C@@H](O)[C@H]12.O=C(O)c1cc(S(=O)(=O)O)ccc1O [Prestw-456],0.184 ± 0.47
24,N=C(N)NCCC[C@H](N)C(=O)O,1.28 ± 1.8
25,Cc1nc2n(c(=O)c1CCN1CCC(c3noc4cc(F)ccc34)CC1)CCCC2 [Prestw-1029],0.415 ± 1.4

row,Compound,pThr231Tau/total Tau ratio Z-score
1,CNCCC(Oc1ccc(C(F)(F)F)cc1)c1ccccc1 (stereo not drawn) [Prestw-511],-1.04 ± 2.3
2,CC(C)NC[C@H](O)c1ccc(O)c(O)c1 [Prestw-1097],0.113 ± 1.2
3,CC(Oc1ccccc1)C(=O)N[C@@H]1C(=O)N2[C@@H]1SC(C)(C)[C@@H]2C(=O)O (stereo partly drawn) [Prestw-723],0.728 ± 0.27
4,"COc1ccc(-c2cc(C(F)F)nn2-c2ccc(S(N)(=O)=O)cc2)cc1F [DERACOXIB, antiinflammatory, antiarthritic, COX-2 inhibitor]",-0.536 ± 0.45
5,N[C@@H](C(=O)N[C@@H]1C(=O)N2C(C(=O)O)=C(Cl)CS[C@H]12)c1ccccc1 [Prestw-485],-0.312 ± 0.42
6,COc1ccc(C(=O)NCc2ccc(OCCN(C)C)cc2)cc1OC [Prestw-1295],-0.412 ± 0.93
7,O=C1c2ccccc2S(=O)(=O)N1CCCCN1CCN(c2ncccn2)CC1 [Prestw-1292],0.133 ± 0.74
8,NC(N)=O,2.41 ± 2.1
9,Cn1c([N+](=O)[O-])cnc1COC(N)=O [Prestw-1115],-0.0586 ± 1.9
10,CO[C@H]1C=CO[C@@]2(C)Oc3c(C)c(O)c4c(O)c(c5c(c4c3C2=O)=NC2(CCN(CC(C)C)CC2)N=5)NC(=O)C(C)=CC=C[C@H](C)[C@H](O)[C@@H](C)[C@@H](O)[C@@H](C)[C@H](OC(C)=O)[C@@H]1C [Prestw-1109],-1.08 ± 0.74
11,c1ccc2c(c1)CCCc1cc(NCCN3CCOCC3)nnc1-2 [Prestw-406],-0.52
12,Nc1cc(-c2ccncc2)c[nH]c1=O [Prestw-800],-0.812 ± 1.1
13,C[C@H]1C[C@@H]2[C@H]([C@@H](O)C[C@@]3(C)[C@H]2CC[C@]3(O)C(=O)COC(=O)CCC(=O)O)[C@@]2(C)C=CC(=O)C=C12,2.27 ± 1.9
14,Nc1c(Br)cc(Br)cc1CNC1CCC(O)CC1 (stereo not drawn) [Prestw-366],0.0922 ± 0.14
15,CC(N)C12CC3CC(CC(C3)C1)C2 (stereo not drawn) [Prestw-1331],-0.138 ± 0.033
16,CCCCc1ccc2nc(NC(=O)OC)[nH]c2c1 [Prestw-1110],-0.967 ± 4.3
17,CN(CCOc1ccc(CC2SC(=O)NC2=O)cc1)c1ccccn1 (stereo not drawn) [Prestw-1337],-1.06 ± 0.13
18,CCC(=O)OCC(=O)[C@@]1(OC(=O)CC)[C@H](C)C[C@H]2[C@H]3[C@H]([C@@H](O)C[C@@]21C)[C@@]1(C)C=CC(=O)C=C1C[C@H]3Cl [Prestw-771],0.445 ± 0.98
19,O=C(OCc1ccccc1)c1ccccc1 [BENZYL BENZOATE    Therap cat: scabicide],0.416 ± 0.25
20,OC(CCN1CCCCC1)(c1ccccc1)C1CCCCC1 (stereo not drawn) [Prestw-701],-0.806 ± 0.43
21,Cc1ccc2c(Cl)cc(Cl)c(O)c2n1,0.0156 ± 0.98
22,N=C(N)N/N=C/c1c(Cl)cccc1Cl [Prestw-96],1.19 ± 0.46
23,"CCCCCCCCCC(=O)N[C@H]1[C@H](Oc2c3cc4cc2Oc2ccc(cc2Cl)[C@@H](O[C@@H]2O[C@H](CO)[C@@H](O)[C@H](O)[C@H]2NC(C)=O)[C@@H]2NC(=O)[C@H](NC(=O)[C@@H]4NC(=O)[C@H]4NC(=O)[C@@H](Cc5ccc(c(Cl)c5)O3)NC(=O)[C@H](N)c3ccc(O)c(c3)Oc3cc(O)cc4c3)c3ccc(O)c(c3)-c3c(OC4O[C@H](CO)[C@@H](O)[C@H](O)[C@@H]4O)cc(O)cc3[C@@H](C(=O)O)NC2=O)O[C@H](CO)[C@@H](O)[C@@H]1O (stereo partly drawn) [TEICOPLANIN [A(2-1) shown], antibacterial]",1.56 ± 1.6
24,CN(C)CCOC(=O)COc1ccc(Cl)cc1 [Prestw-763],0.151 ± 0.35
25,CC(=O)Nc1ccc(O)cc1 [Prestw-868],1.25 ± 0.71

# Retrieved one by one from above (three):
row,Compound,pThr231Tau/total Tau ratio Z-score
11,c1ccc2c(c1)CCCc1cc(NCCN3CCOCC3)nnc1-2 [Prestw-406],-0.52
24,CN(C)CCOC(=O)COc1ccc(Cl)cc1 [Prestw-763],0.151 ± 0.35
9,Cn1c([N+](=O)[O-])cnc1COC(N)=O [Prestw-1115],-0.0586 ± 1.9

# The list goes on.

row,Compound,pThr231Tau/total Tau ratio Z-score
1,Cc1ccccc1N1C(=O)c2cc(S(N)(=O)=O)c(Cl)cc2NC1C (stereo not drawn) [Prestw-112],2.69 ± 1.1
2,Cc1cc(-n2c(=O)[nH]c(=O)n(C)c2=O)ccc1Oc1ccc(SC(F)(F)F)cc1 [Prestw-1195],-0.547 ± 0.48
3,C=CC1=C(C(=O)O)N2C(=O)[C@@H](NC(=O)/C(=N\OCC(=O)O)c3csc(N)n3)[C@H]2SC1 [Prestw-462],1.28 ± 0.42
4,OCCOCCN1CCN(C(c2ccccc2)c2ccc(Cl)cc2)CC1 (stereo not drawn),-0.489 ± 0.24
5,OCCOCCN1CCN(C(c2ccccc2)c2ccc(Cl)cc2)CC1 (stereo not drawn) [Prestw-133],-0.591 ± 0.078
6,C[C@]12CC[C@@H]3c4ccc(O)cc4CC[C@H]3[C@@H]1C[C@@H](O)[C@@H]2O [Prestw-1096],0.062 ± 0.32
7,CN(C)CCCO[C@@H]1[C@H]2OC(C)(C)O[C@H]2O[C@@H]1[C@H](O)CO [Prestw-845],0.24 ± 1.1
8,CC[N+](CC)(CC)CCC(O)(c1ccccc1)C1CCCCC1 (stereo not drawn) [Prestw-1042],-1 ± 0.11
9,Cc1noc(NS(=O)(=O)c2ccc(N)cc2)c1C [Prestw-334],0.722 ± 1.4
10,CCc1cccc2c3c([nH]c12)C(CC)(CC(=O)O)OCC3 (stereo not drawn) [Prestw-231],-0.609 ± 0.46
11,"CCCCC(=O)O[C@]1(C(=O)CO)CC[C@H]2[C@@H]3CCC4=CC(=O)CC[C@]4(C)[C@H]3[C@@H](O)C[C@@]21C [HYDROCORTISONE VALERATE, antiinflammatory, glucocorticoid]",1.57 ± 1.9
12,CC(Oc1c(Cl)cccc1Cl)C1=NCCN1 (stereo not drawn) [Prestw-1430],0.145 ± 0.29
13,CC1=C(CC(=O)O)c2cc(F)ccc2/C1=C\c1ccc([S+](C)[O-])cc1 (stereo not drawn) [Prestw-73],1.24 ± 0.055
14,CN(C)CC/C=C1\c2ccccc2COc2ccccc21 [Prestw-263],-0.198 ± 1.2
15,CO/N=C(\C(=O)N[C@@H]1C(=O)N2C(C(=O)O)=C(C[N+]3(C)CCCC3)CS[C@H]12)c1csc(N)n1 [Prestw-1118],-0.664 ± 1.1
16,CCOC(=O)[C@H](CCc1ccccc1)N[C@@H](C)C(=O)N1CCC[C@H]1C(=O)O [Prestw-314],2.5 ± 3.5
17,Cn1nnnc1SCC1=C(C(=O)O)N2C(=O)[C@@H](NC(=O)[C@H](OC=O)c3ccccc3)[C@H]2SC1 [CEFAMANDOLE NAFATE    Therap cat: antimicrobial],1.83 ± 2.2
18,CO[C@H]1C[C@H](O[C@H]2[C@H](C)[C@@H](O[C@@H]3O[C@H](C)C[C@H](N(C)C)[C@H]3OC(C)=O)[C@@H](C)C[C@@]3(CO3)C(=O)[C@H](C)[C@@H](OC(C)=O)[C@@H](C)[C@@H](C)OC(=O)[C@@H]2C)O[C@@H](C)[C@@H]1OC(C)=O [Prestw-36],0.582 ± 0.1
19,COc1ccc(-c2ccc(=N)n(CCCC(=O)O)n2)cc1 [Prestw-443],0.747 ± 0.9
20,Cc1cc(C(=O)NNCc2ccccc2)no1 [Prestw-795],0.585 ± 1
21,O=C(O)C1CSCN1 (stereo not drawn),-0.656 ± 0.88
22,NCC1CCC(C(=O)O)CC1 (stereo not drawn) [Prestw-171],0.643 ± 0.23
23,"CCCCCCCCCCC[C@@H](C[C@@H]1OC(=O)[C@H]1CCCCCC)OC(=O)[C@H](CC(C)C)NC=O [ORLISTAT, reversible lipase inhibitor, antiobesity]",-0.213 ± 0.082
